Reference: patent publication US7632645B1, “EGF receptor transactivation by G-protein-coupled receptors requires metalloproteinase cleavage of proHB-EGF” (Max-Planck-Gesellschaft zur forderung der Wissenschaften …, priority 1999, dated 2009)
At least one compound was matched to its structure with a doubt left.

Legend:
proHB-EGF = type: cell-based
EGFR = EGFR tyrosine phosphorylation in PC-3 prostate carcinoma cells; type: cell-based, human; conditions: PC-3 cells starved for 36 hours; 3 minutes stimulation; FIG. 4f

| Compound | effect on HB-EGF processing in response to carbachol (proHB-EGF) | proteolytic processing of membrane-anchored proHB-EGF upon agonist stimulation (proHB-EGF) | induction of tyrosine phosphorylation of the EGFR by agonist (EGFR) |
| --- | --- | --- | --- |
| CNC(=O)[C@H](Cc1ccccc1)NC(=O)[C@H](CC(C)C)[C@H](CSc1cccs1)C(=O)NO [batimastat] | significantly reduced |  |  |
| CSCC[C@H](NC(=O)[C@H](CC(C)C)NC(=O)[C@H](Cc1cnc[nH]1)NC(=O)CNC(=O)[C@@H](NC(=O)[C@H](C)NC(=O)[C@H](Cc1c[nH]c2ccccc12)NC(=O)[C@H](CCC(N)=O)NC(=O)[C@H](CC(N)=O)NC(=O)CNC(=O)[C@H](CC(C)C)NC(=O)[C@H](CCCN=C(N)N)NC(=O)[C@H](CCC(N)=O)NC(=O)[C@@H]1CCC(=O)N1)C(C)C)C(N)=O [bombesin] |  | rapid breakdown | induce tyrosine phosphorylation |
